PubChem BioAssay AID1259424 – University of Nebraska Medical Center, 2018

Aim: 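Rank knockdowns across the genome by resemblance to the KSR1 depletion profile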 (primary screen)
System: human HCT116 colon cancer cells
Reagent: siRNA pool against human genes, 50 nM
Measurement: 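Log2 levels of six mRNAs (branched-DNA multiplex), adjusted by two reference genes and the non-targeting median, then scored against the average KSR1 knockdown pattern as Pearson r and euclidean distance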
Direction: mean correlation with KSR1 profile and KSR1 correlation: higher = expression change more like KSR1 knockdown; mean distance from KSR1 profile: higher = expression change less like KSR1 knockdown
In all, the deposit lists about 14,000 reagents; below is a random part of them. 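Higher correlation or smaller distance means closer resemblance to KSR1 loss; control wells, including KSR1 knockdowns, recur on many plates.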 No sequences are given here. Not given: the time to read-out.

| gene | mean correlation with KSR1 profile | mean distance from KSR1 profile | KSR1 correlation, replicate 1 | KSR1 correlation, replicate 2 | KSR1 correlation, replicate 3 |
| --- | --- | --- | --- | --- | --- |
| AMACR | 0.0232 | 2.72 | -0.0204 | 0.178 | -0.0316 |
| FAM194C | 0.844 | 1.45 | 0.755 | 0.778 | 0.809 |
| ZNF654 | -0.626 | 1.44 | -0.438 | -0.645 | -0.734 |
| CNTNAP3 | 0.423 | 1.29 | 0.548 | 0.179 | 0.398 |
| NUDT2 | 0.853 | 3.3 | 0.737 | 0.804 | 0.788 |
| RPP38 | -0.33 | 2.33 | -0.218 | -0.23 | -0.379 |
| CAV2 | 0.614 | 1.1 | 0.602 | 0.599 | 0.404 |
| PTGR1 | -0.252 | 1.6 | -0.00962 | -0.395 | -0.476 |
| PROCR | 0.312 | 1.25 | 0.3 | 0.273 | 0.367 |
| LGMN | 0.2 | 1.47 | -0.0135 | 0.329 | 0.271 |
| ERBB3 | 0.28 | 3.7 | 0.247 | 0.0982 | 0.359 |
| FBXW11 | -0.452 | 2.43 | -0.501 | -0.587 | -0.265 |
| NMT2 | -0.4 | 1.94 | -0.572 | -0.137 | 0.032 |
| SLC1A5 | 0.317 | 1.21 | 0.591 | 0.228 | -0.051 |
| MYH6 | -0.0794 | 2.62 | 0.088 | -0.138 | -0.243 |
| NR3C1 | 0.718 | 1.43 | 0.863 | 0.831 | 0.172 |
| MAP4 | 0.063 | 3.38 | 0.0967 | -0.0231 | 0.0409 |
| IL36RN | 0.364 | 0.999 | -0.228 | 0.47 | 0.645 |
| NAT8 | 0.611 | 1.77 | 0.567 | 0.602 | 0.599 |
| NUP85 | 0.41 | 1.43 | 0.634 | 0.513 | 0.24 |
| SCRG1 | -0.508 | 2.63 | -0.191 | -0.531 | -0.638 |
| BICRAL | -0.272 | 1.82 | -0.647 | -0.567 | 0.233 |
| MORF4 | 0.229 | 5.39 | 0.503 | 0.143 | 0.218 |
| SEL1L2 | -0.566 | 5.02 | -0.742 | -0.409 | -0.557 |
| DDIT3 | 0.518 | 1.95 | 0.539 | 0.516 | 0.299 |
| C6 | -0.448 | 1.46 | -0.323 | -0.335 | -0.409 |
| NAT8B | -0.339 | 1.66 | -0.274 | -0.309 | -0.138 |
| CEP76 | 0.0466 | 1.8 | 0.169 | 0.196 | -0.212 |
| PPM1H | -0.495 | 2.33 | -0.402 | -0.489 | -0.555 |
| SMAD7 | 0.728 | 0.85 | 0.811 | 0.703 | 0.38 |
| ACTN2 | 0.0439 | 1.03 | 0.249 | -0.309 | 0.0514 |
| BRIP1 | -0.293 | 1.93 | -0.409 | -0.348 | -0.00921 |
| UBL3 | -0.578 | 1.65 | -0.604 | -0.496 | -0.285 |
| NTNG2 | 0.906 | 0.705 | 0.833 | 0.862 | 0.812 |
| HACD1 | 0.248 | 0.923 | 0.357 | 0.0819 | 0.0387 |
| GPAT3 | 0.605 | 1.18 | 0.377 | 0.665 | 0.476 |
| AP4B1 | 0.659 | 1.66 | 0.844 | 0.493 | 0.558 |
| MIPOL1 | -0.578 | 1.8 | -0.786 | -0.735 | -0.13 |
| HOXC13 | -0.313 | 1.73 | -0.368 | -0.166 | -0.0294 |
| ZNF84 | 0.661 | 1.4 | 0.559 | 0.927 | 0.509 |
| CASD1 | 0.527 | 2 | 0.219 | 0.213 | 0.553 |
| CEP131 | -0.13 | 1.92 | -0.144 | -0.481 | 0.46 |
| SORBS3 | -0.866 | 2.19 | -0.78 | -0.89 | -0.805 |
| BTNL3 | -0.405 | 1.67 | -0.112 | -0.584 | -0.301 |
| KCNH7 | 0.594 | 1.55 | 0.706 | 0.41 | 0.53 |
| HSPA1A | -0.298 | 2.12 | -0.176 | -0.562 | -0.0738 |
| FANCL | -0.511 | 2.09 | -0.615 | -0.503 | -0.148 |
| ETV4 | 0.83 | 4.64 | 0.659 | 0.93 | 0.868 |
| DPEP1 | -0.179 | 2.47 | 0.144 | 0.361 | -0.52 |
| CHEK2 | 0.746 | 1.12 | 0.77 | 0.56 | 0.705 |
